# Screening data, single-dose tests

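Whole-parasite assay of Trypanosoma brucei over 72 hours; the read-out is not stated. Tested at 30 µM. The record gives no direction; compounds that gave an IC50 in retests scored well above the rest, so higher reads as stronger inhibition. Values scatter widely below zero; nearly all retest evidence comes from the higher of the two concentrations used. Size under these conditions: about 64,000 compounds, about 940 of them at 50% or above in at least one test.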

The filed quantity is “Percent Effect” (%). How 0% and 100% were set is not recorded. Most values in the screen are low, and negative values occur. Compounds were drawn at random from those tested, without regard to their results.

SMILES	effect
[H][C@@]12COC[C@H](c3nc(C)no3)[C@]1([H])CN(C(=O)Cc1cccs1)C2	-5.33%
OCCNc1nccc(-c2cn3nccc3nc2C2CCCCC2)n1	44.74%
CCOC(=O)N1CCN(c2nc(NC3CC3)c3ccccc3n2)CC1.Cl	-18.86%
CC(=O)N1CCC2(C1)C(=O)N(CC1CC1)c1ccccc12 (configuration not stated)	-15.4%
Cc1ccc(-c2nc(CNc3ccc(C(N)=O)c(C)c3)cs2)o1	9.45%
Cn1ncc2c(N[C@H]3CCCC[C@@H]3O)nc(C(C)(C)C)nc21	-1.471%
CN(C)[C@@H]1CN(Cc2ccc(O)cc2)C[C@H]1c1cn(C)c2ccccc12.Cl	10.26%
CN(CCCNC(=O)C1CCCN(C(N)=O)C1)S(C)(=O)=O (configuration not stated)	-1.33%
Cc1nc(C2CCN(CC(=O)NC3CC3)CC2)cc(N2CCOCC2)n1	-25.72%
CCN(CC)CCN(C)Cc1cn(C)nc1-c1ccc2c(c1)OCCO2	-12.97%
COCC1CN(C(=O)Nc2cc(Cl)cc(Cl)c2)CCO1 (configuration not stated)	-16.88%
CCOc1ccc(Cl)cc1CCNC(=O)Cn1nc(C)ccc1=O	-81.1%
CCNC(=O)CN(CC)C(=O)c1cccc(Nc2cnn(C)c2)c1	-32.63%
O=C(O)C(F)(F)F.O=C(O)C(F)(F)F.[H][C@]12C[C@@H](CN3CCCC3)N(C)[C@@]1([H])CCN(C(=O)Cc1ccsc1)C2	-74.63%
OC(CNCCn1cccn1)COc1ccc(F)cc1 (configuration not stated)	3.429%
c1ccc(-c2cnc(CN(Cc3cccnc3)CC3CCCO3)o2)cc1 (configuration not stated)	-60.96%
Cc1c(C(=O)NCCN2C(=O)CCC2=O)sc2ccc(F)cc12	-19.17%
CN(Cc1ccccn1)C(=O)c1nc(S(C)(=O)=O)n2ccccc12	-1.564%
c1cc(-c2n[nH]c(CNc3nnc(C4CC4)o3)n2)ccn1	0.7676%
CCC(CO)N(Cc1cccc(-n2cccn2)c1)Cc1cccs1 (configuration not stated)	-27.86%
c1ccc2c(CC3CN(Cc4nccs4)CCO3)cccc2c1 (configuration not stated)	2.605%
COCC(=O)NC(Cc1cc(N(C)C)nc(C2CC2)n1)c1ccccc1 (configuration not stated)	-3.966%
O=C(CCC1CCCO1)NCc1ccccc1Cn1cncn1 (configuration not stated)	12%
CN(C)CC(=O)N1CCc2sc(C(=O)N3CCOCC3)cc21	-12.3%
CC1CN(S(=O)(=O)c2cc(S(C)(=O)=O)ccc2Br)c2cccnc2O1 (configuration not stated)	-16.66%
Brc1ccc(CNCc2nnc3n2CCC3)s1.Cl	-37.22%
CC(=O)c1cccc(NS(=O)(=O)c2cc(C)c(C(=O)O)s2)c1	1.765%
CNc1cc(C)nc(C2COCCN2CCc2ccc(F)cc2)n1 (configuration not stated)	0.8101%
CC(=O)Nc1nc(CN2CCn3c(nnc3C3CC3)C2)cs1	19.87%
Cc1nccn1C1(C(=O)O)CCN(Cc2ccc3nsnc3c2)CC1	1.882%
CCc1nc2ccccc2c(=O)n1CC1(O)CCN(C(=O)C(C)C)CC1	11.45%
Cc1cnc(NC(=O)c2ccc(C3CCCN3CC(C)C)s2)s1 (configuration not stated)	0.4974%
CC1=Nc2c(c(=O)[nH]n2C2CCCCC2)C(c2cccnc2)S1 (configuration not stated)	9.445%
COc1ccc(CC(=O)N2CCC(c3n[nH]c(C4CC4)n3)CC2)cc1	-0.6433%
CC(C)Cc1cn(C2CCN(C(C)CC3CC3)CC2)nn1 (configuration not stated)	0.4887%
CC(Cc1ccc2c(c1)OCO2)c1cn(CCN2CCCC2)nn1 (configuration not stated)	-12.19%
O=C(c1ccnn1-c1ccc2ccccn12)N1CCOCC1	-64.21%
CC(C)c1nc(C2CCCN2CCS(C)(=O)=O)no1 (configuration not stated)	-60.91%
O=C(c1ccc2[nH]nnc2c1)N1CCC(Nc2cccnn2)CC1	-1.111%
COc1c(CNCc2cccc(CN3CCOCC3)c2)c(C)nn1C	-18.51%
CC(O)CN1CCN(C(=O)c2ccn(-c3ccccc3Cl)n2)CC1 (configuration not stated)	-4.309%
O=C(CNC(=O)C1CC1)NCCOc1cccc(Cl)c1Cl	-69.77%
Cn1ncc2c1NC(=O)CSC2c1ccccc1Cl (configuration not stated)	-40.09%
CCc1nc(C2CCCN2CC(=O)Nc2cc(C)no2)no1 (configuration not stated)	-10.33%
CC(C)Oc1ncccc1CNC(=O)C1CCCN(C(=O)C2CC2)C1 (configuration not stated)	-46.65%
CCc1nc(CN(C)Cc2ncc(-c3cccs3)o2)cs1	-54.56%
Cc1cnn(CCNCc2ccc(F)cc2Cl)c1	19.49%
Cn1nc(C(=O)NC2(c3ccc(Cl)cc3)CCCC2)ccc1=O	-42.71%
CC(C)COC(C)C(=O)NCCNC(=O)C(C)C (configuration not stated)	-9.979%
CCCSCC(=O)N1CCCC2(CCC(=O)N(CCc3c[nH]cn3)C2)C1 (configuration not stated)	-25.59%
CCc1nsc(N2CCc3sccc3C2)n1	-38.75%
CC(=O)N1CCN(c2cc(C3CCNCC3)ccn2)CC1.Cl.Cl	-13.35%
CCN(CC)c1nc(C)cc(C(=O)Nc2cnn(CC)c2)n1	-12.11%
Cc1ccc(C(=O)N2CC(=O)N(Cc3cccs3)CC(O)C2)cc1 (configuration not stated)	2.037%
Cc1cc(C2CCCN2S(=O)(=O)c2cnn(C)c2)on1 (configuration not stated)	7.809%
Cc1ccccc1S(=O)(=O)Cc1nsc(N(C)C)n1	-2.335%
CC1CCCN(Cc2c(C3CC3)n(CC(=O)N(C)C)c3ncccc23)C1.Cl (configuration not stated)	-32.63%
COc1ncnc2c1CCN(C(=O)NCc1cccc(F)c1)CC2	-58.76%
Cc1cc(CNc2cc(Cl)ccc2Cl)no1	-14.8%
CCOC(=O)C1CCN(C(=O)CN2CCCC2c2cc(C)no2)CC1 (configuration not stated)	0.476%

Some entries from above, unchanged:

SMILES	effect
Cc1cnn(CCNCc2ccc(F)cc2Cl)c1	19.49%
O=C(c1ccc2[nH]nnc2c1)N1CCC(Nc2cccnn2)CC1	-1.111%
CCNC(=O)CN(CC)C(=O)c1cccc(Nc2cnn(C)c2)c1	-32.63%

Measurements from “University of Dundee, Small-Polar-MMV Screening Library” (2021), ChEMBL document CHEMBL3988442.